Data on six molecules can be found in PMC11188199, “Development and validation of a generic methyltransferase enzymatic assay based on an SAH riboswitch” (SLAS discovery : advancing life sciences R & D, 2024).

The data set relates to AptaFluor detection reagents. Put plainly: Tolerance of substrates and reagents in the AptaFluor SAH assay. The settings on record: 10 nM SAH.
On to `O=C(O)CN(CCN(CC(=O)O)CC(=O)O)CC(=O)O` [EDTA], for which the “Tolerance (maximum concentration with < 10% change in assay signal)” value was 1 mM.
To `O=C(O)CN(CCOCCOCCN(CC(=O)O)CC(=O)O)CC(=O)O` [EGTA] belongs 1 mM; to `CCO` [Ethanol], 50%; to `CO` [Methanol], 50%.
Triton X-100: the “Tolerance (maximum concentration with < 10% change in assay signal)” value is 0.10%.
Consider Tween 20, for which the “Tolerance (maximum concentration with < 10% change in assay signal)” value was found to be 0.50%.
